Experimental data taken from the supplement of paper PMC9233669.
Variants at the floor of the assay are shown more often than the library holds them.

Tests used:
biotinyl-Met-oxazolone = experiment: self-aminoacylation, catalytic enhancement (BMO) (fold over background); higher = more active; k-Seq, kA / k0A0; sequences stand for … in GGGAAUGGAUCCACAUCUACGAAUUC…UUCACUGCAGACUUGACGAAGCUG
How it was run: (§1)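 Each biotinyl-aminoacyl-oxazolone, at 2–1250 μM, was incubated with mutagenized RNA pools (0.43 μM) carrying a 21-nt variable region. The 50 μL reactions contained HEPES/NaCl/KCl/MgCl2/CaCl2 buffer with 5% acetonitrile at pH 6.9–7.0 and ran for 90 minutes at room temperature. After streptavidin capture, RNA was measured by qPCR in triplicate and by Illumina sequencing, and catalytic enhancement was calculated as median kA over the uncatalyzed rate from a pseudo-first-order fit of per-sequence fraction reacted.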

biotinyl-Leu-oxazolone = experiment: self-aminoacylation, catalytic enhancement (BLO) (fold over background); higher = more active; k-Seq, kA / k0A0; sequences stand for … in GGGAAUGGAUCCACAUCUACGAAUUC…UUCACUGCAGACUUGACGAAGCUG
How it was run: as §1

biotinyl-Phe-oxazolone = experiment: self-aminoacylation, catalytic enhancement (BFO) (fold over background); higher = more active; k-Seq, kA / k0A0; sequences stand for … in GGGAAUGGAUCCACAUCUACGAAUUC…UUCACUGCAGACUUGACGAAGCUG
How it was run: as §1

biotinyl-Trp-oxazolone = experiment: self-aminoacylation, catalytic enhancement (BWO) (fold over background); higher = more active; k-Seq, kA / k0A0; sequences stand for … in GGGAAUGGAUCCACAUCUACGAAUUC…UUCACUGCAGACUUGACGAAGCUG
How it was run: as §1

biotinyl-Val-oxazolone = experiment: self-aminoacylation, catalytic enhancement (BVO) (fold over background); higher = more active; k-Seq, kA / k0A0; sequences stand for … in GGGAAUGGAUCCACAUCUACGAAUUC…UUCACUGCAGACUUGACGAAGCUG
How it was run: as §1

biotinyl-Ile-oxazolone = experiment: self-aminoacylation, catalytic enhancement (BIO) (fold over background); higher = more active; k-Seq, kA / k0A0; sequences stand for … in GGGAAUGGAUCCACAUCUACGAAUUC…UUCACUGCAGACUUGACGAAGCUG
How it was run: as §1

Sequence	self-aminoacylation (biotinyl-Met-oxazolone)	self-aminoacylation (biotinyl-Leu-oxazolone)	self-aminoacylation (biotinyl-Phe-oxazolone)	self-aminoacylation (biotinyl-Trp-oxazolone)	self-aminoacylation (biotinyl-Val-oxazolone)	self-aminoacylation (biotinyl-Ile-oxazolone)
AUUUCCCUGGUGAUCGAGUGA [Fam2.1 aminoacylation ribozyme variant]	5.5	5.66	44.4	6.58	3.15	2.77
AAGUUUGCAAAUAGUCGCACG [Fam3.1 aminoacylation ribozyme variant]	0.694	0.787	0.992	0.66	0.93	0.964
CCACACUUCCAGCAAUCUGUC [Fam1B.1 aminoacylation ribozyme variant]	0.487	0.445	0.691	0.38	0.873	0.608
AUUUUUGCUAAUAGUCGCAAG [Fam3.1 aminoacylation ribozyme variant]	1.07	0.994	1.71	1.02	1.02	1.37
AUAGUUCAAACAAUCGGUCUG [Fam1A.1 aminoacylation ribozyme variant]	0.827	0.94	4.05	3.06	0.822	0.94
AUUACGGUGGUCAUCGAGUGA [Fam2.1 aminoacylation ribozyme variant]	2.68	2.56	5.75	3.24	2.09	2.44
CUACUUCGAACACUCGGUCUG [Fam1A.1 aminoacylation ribozyme variant]	1.04	1.32	3.18	1	1.18	1.02
CUACUUCAAACAAUCUGUCGG [Fam1A.1 aminoacylation ribozyme variant]	0.717	0.965	0.542	0.504	0.812	0.875
GUACUUCAAACAAUCGGCCUG [Fam1A.1 aminoacylation ribozyme variant]	4.06	7.02	272	89.6	4.17	4.51
CUACUUCAAACUGUCGGUCUG [Fam1A.1 aminoacylation ribozyme variant]	1.04	0.986	0.522	0.814	1.09	1.01
CCACACUUCUAGCAACCGGUC [Fam1B.1 aminoacylation ribozyme variant]	0.681	0.868	0.818	0.402	0.946	0.817
AAGUUUGAUAAUAGUCCCAAG [Fam3.1 aminoacylation ribozyme variant]	0.47	0.423	0.838	0.489	0.515	0.613
CUACUUCAAACAAUCAUUCUG [Fam1A.1 aminoacylation ribozyme variant]	0.488	0.513	3.72	1.55	0.577	0.616
AUUACCCUUGUCAUCGAGUUA [Fam2.1 aminoacylation ribozyme variant]	1.07	0.851	0.904	0.71	0.992	1.04
CCACAGGUCAAGCAAUCGGUC [Fam1B.1 aminoacylation ribozyme variant]	1.82	1.61	1.09	1.93	1.63	1.64
AAGUUUGCUUAUAGUCACAAG [Fam3.1 aminoacylation ribozyme variant]	0.955	0.776	1.25	1.06	1.23	1.14
AAGUUUGCUAAUAGGCGCCAG [Fam3.1 aminoacylation ribozyme variant]	0.995	0.75	0.389	1.08	0.964	0.767
AAGUUUGCUAAUAAUCGCUAG [Fam3.1 aminoacylation ribozyme variant]	0.919	1.08	1.08	0.885	0.861	0.938
CUACUUCAAACAACCGGUGUG [Fam1A.1 aminoacylation ribozyme variant]	1.49	1.5	0.934	0.956	0.961	1.03
CUACUUCAUACAAUCGGUUUG [Fam1A.1 aminoacylation ribozyme variant]	0.538	0.602	0.619	0.425	0.541	0.64
AUUACCCUGGUAAUCGAGUUA [Fam2.1 aminoacylation ribozyme variant]	1.13	0.991	0.821	0.726	1.15	1.16
UUACUUCAAACAAUCGGUAUG [Fam1A.1 aminoacylation ribozyme variant]	1.02	1.3	12.4	7.05	1.02	1.16
CUACUUCAUACAAUCGGCCUG [Fam1A.1 aminoacylation ribozyme variant]	0.87	1.22	0.744	1.18	1.19	1.24
AAGGUCGCUAAUAGUCGCAAG [Fam3.1 aminoacylation ribozyme variant]	1.94	1.81	2.86	2.4	2.13	1.98
AUUCACCUAGGUCAUCCGGAG [Fam2.2 aminoacylation ribozyme variant]	1.15	1.3	0.862	1.72	1.42	1.4
CCAGACUUCAAACAAUCGGUC [Fam1B.1 aminoacylation ribozyme variant]	1.39	2.19	85.8	40.2	1.5	1.36

Sequence	self-aminoacylation (biotinyl-Met-oxazolone)	self-aminoacylation (biotinyl-Leu-oxazolone)	self-aminoacylation (biotinyl-Phe-oxazolone)	self-aminoacylation (biotinyl-Trp-oxazolone)	self-aminoacylation (biotinyl-Val-oxazolone)	self-aminoacylation (biotinyl-Ile-oxazolone)
AUGCACCUAGUUCAUCGGGUG [Fam2.2 aminoacylation ribozyme variant]	2.73	3.07	13.6	4.29	2.37	2.77
AUUACCCUGGUCAUUGACUGA [Fam2.1 aminoacylation ribozyme variant]	0.623	0.592	0.473	0.357	0.929	0.921
CUACUUCGAACAAUCGGUCUU [Fam1A.1 aminoacylation ribozyme variant]	0.938	1.02	0.723	0.466	0.856	0.937
UAGUUUGCAAAUAGUCGCAAG [Fam3.1 aminoacylation ribozyme variant]	1.04	1.5	2	1.18	1.27	1.33
CCACACUACAAGCACUCGGUC [Fam1B.1 aminoacylation ribozyme variant]	1.12	0.973	0.953	1.03	1.06	1.29
CCAAACUUCAAGCACUCGGUC [Fam1B.1 aminoacylation ribozyme variant]	1.31	1.01	1.52	1.19	1.41	1.23
CUACUUCAUACAAUCAGUCUG [Fam1A.1 aminoacylation ribozyme variant]	0.494	0.638	1.09	0.563	0.769	0.678
AAGUUGGCUAAUAGUAGCAAG [Fam3.1 aminoacylation ribozyme variant]	1.53	1.19	1.36	1.39	1.19	1.44
CCACACUUAAAGCAAUCAGUC [Fam1B.1 aminoacylation ribozyme variant]	0.59	0.606	1.1	0.548	0.741	0.724
AAGUUUGCUAUUAUUCGCAAG [Fam3.1 aminoacylation ribozyme variant]	0.96	0.91	0.908	0.896	0.901	1.15
CCAAACAUCAAGCAAUCGGUC [Fam1B.1 aminoacylation ribozyme variant]	0.831	0.793	1.01	0.972	0.878	0.904
AUUAUCCUGGUCAUCGAGUGG [Fam2.1 aminoacylation ribozyme variant]	5.06	5.03	6.09	4.05	2.27	2.19
AAGUUUCCUAAUAGUCUCAAG [Fam3.1 aminoacylation ribozyme variant]	1.07	1.08	2.15	1.31	1.07	1.26
AUUAUCCUGGUCAUAGAGUGA [Fam2.1 aminoacylation ribozyme variant]	9.86	10.1	59	11.7	4.11	4.58
CUACAUCAAACAAUCGAUCUG [Fam1A.1 aminoacylation ribozyme variant]	0.74	0.661	0.948	0.654	0.801	0.809
CCACACUUCAAGGAAUGGGUC [Fam1B.1 aminoacylation ribozyme variant]	0.727	0.717	0.331	0.398	0.6	0.725
GAGUUUGCUAAUAAUCGCAAG [Fam3.1 aminoacylation ribozyme variant]	0.886	0.992	1.66	1.27	1.13	1.45
AAGUUUGCUACUUGUCGCAAG [Fam3.1 aminoacylation ribozyme variant]	0.928	1.06	1.01	1.21	1.12	1.05
AUUAGCCUGGUCAUCGAGAGA [Fam2.1 aminoacylation ribozyme variant]	1.08	1.43	1.49	1.35	1.25	1.63
AAGUUUGCUAAUGGUGGCAAG [Fam3.1 aminoacylation ribozyme variant]	0.644	0.47	0.67	0.815	0.536	0.803
AUUACCCUGGUCAUCGAUUGA [Fam2.1 aminoacylation ribozyme variant]	0.987	1.02	1.01	0.85	0.997	0.93
AAGUUCACUAAUAGUCGCAAG [Fam3.1 aminoacylation ribozyme variant]	1.37	1.8	2.72	2.23	1.86	1.96
AUUUCCCUGGUCAUCGAGUCA [Fam2.1 aminoacylation ribozyme variant]	0.846	0.944	0.887	0.598	1.11	1.01
AAGUUUGCUGAUAGACGCAAG [Fam3.1 aminoacylation ribozyme variant]	0.727	0.712	0.471	0.929	0.83	0.538
AUUACCCUGGUCCUCGAGUCA [Fam2.1 aminoacylation ribozyme variant]	0.922	0.792	1.17	0.7	1.12	0.852
